Reference: publication PMC6735364
No constants are given. Whether binding was seen depends on the method and setting. In cells and extracts the contact can be indirect. Some results given as binding are weak or reduced against the parent protein; the word gives no strength.

Amino acid sequences for entries named in this document (tags omitted).
UniProt Q00987: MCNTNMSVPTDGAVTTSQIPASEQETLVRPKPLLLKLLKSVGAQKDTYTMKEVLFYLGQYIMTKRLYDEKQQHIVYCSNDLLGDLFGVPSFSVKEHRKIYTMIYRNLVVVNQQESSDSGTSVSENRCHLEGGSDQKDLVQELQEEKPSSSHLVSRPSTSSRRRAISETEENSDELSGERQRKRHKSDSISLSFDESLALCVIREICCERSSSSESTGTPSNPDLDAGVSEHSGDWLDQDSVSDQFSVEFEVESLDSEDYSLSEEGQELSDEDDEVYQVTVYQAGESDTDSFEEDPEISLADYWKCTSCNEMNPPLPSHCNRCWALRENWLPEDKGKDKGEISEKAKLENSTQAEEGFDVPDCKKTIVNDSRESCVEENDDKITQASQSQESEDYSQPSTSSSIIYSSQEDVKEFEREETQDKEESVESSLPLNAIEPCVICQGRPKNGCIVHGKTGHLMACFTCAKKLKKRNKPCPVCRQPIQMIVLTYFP

Biological target: mouse double minute 2 (MDM2) protein (human (endogenous in GF-1712 and U87)) (UniProt Q00987)
Assay: co-IP; GF-1712 and U87 cells in RIPA lysis buffer; incubation with anti-MTBP or anti-MDM2 overnight at 4°C, protein-A/G PLUS-Agarose beads, western blot; anti-IgG as negative control

B1: MDM2 binding protein (MTBP) (protein, UniProt Q96DY7 1-904)
chain: MDRYLLLVIWGEGKFPSAASREAEHGPEVSSGEGTENQPDFTAANVYHLLKRSISASINPEDSTFPACSVGGIPGSKKWFFAVQAIYGFYQFCSSDWQEIHFDTEKDKIEDVLQTNIEECLGAVECFEEEDSNSRESLSLADLYEEAAENLHQLSDKLPAPGRAMVDIILLLSDKDPPKLKDYLPTVGALKHLREWYSAKITIAGNHCEINCQKIAEYLSANVVSLEDLRNVIDSKELWRGKIQIWERKFGFEISFPEFCLKGVTLKNFSTSNLNTDFLAKKIIPSKDKNILPKVFHYYGPALEFVQMIKLSDLPSCYMSDIEFELGLTNSTKQNSVLLLEQISSLCSKVGALFVLPCTISNILIPPPNQLSSRKWKEYIAKKPKTISVPDVEVKGECSSYYLLLQGNGNRRCKATLIHSANQINGSFALNLIHGKMKTKTEEAKLSFPFDLLSLPHFSGEQIVQREKQLANVQVLALEECLKRRKLAKQPETVSVAELKSLLVLTRKHFLDYFDAVIPKMILRKMDKIKTFNILNDFSPVEPNSSSLMETNPLEWPERHVLQNLETFEKTKQKMRTGSLPHSSEQLLGHKEGPRDSITLLDAKELLKYFTSDGLPIGDLQPLPIQKGEKTFVLTPELSPGKLQVLPFEKASVCHYHGIEYCLDDRKALERDGGFSELQSRLIRYETQTTCTRESFPVPTVLSPLPSPVVSSDPGSVPDGEVLQNELRTEVSRLKRRSKDLNCLYPRKRLVKSESSESLLSQTTGNSNHYHHHVTSRKPQTERSLPVTCPLVPIPSCETPKLATKTSSGQKSMHESKTSRQIKESRSQKHTRILKEVVTETLKKHSITETHECFTACSQRLFEISKFYLKDLKTSRGLFEEMKKTANNNAVQVIDWVLEKTSKK
In the case of B1, the binding is reported as “binds”.
